Data as given in PubChem BioAssay AID602196 (INSERM, 2012)

- Test: 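Genes whose knock-down alters cisplatin killing of lung cancer cells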
- Cells: human A549 lung cancer cells
- Knock-down reagent: siRNA pair against human genes
- Timing: 48 h transfection before cisplatin; time from cisplatin to read-out not stated
- Conditions: cisplatin at a dose killing half of control-siRNA cells; exact dose and duration not given
- Detection: 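Shift in cisplatin death relative to control siRNA, from -50 (all cells die) to +50 (no cells die); siRNAs harmful on their own scored 0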
- Reading the numbers: two-siRNA summed score (-2 to +2): higher = both siRNAs protect from cisplatin killing; -2 means both sensitise; mean protection from cisplatin (shift in death) and protection from cisplatin (shift in death), siRNA C and protection from cisplatin (shift in death), siRNA D: higher = protection from cisplatin killing
- Call rule: 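siRNAs harmful alone (LDH or WST-1) get 0; others get +1 for less and -1 for more cisplatin killing; genes are active when the two siRNAs give the same sign, summing to ±2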
- Calls: active = both siRNAs shift cisplatin killing the same way; inactive = no consistent shift, or siRNA harmful alone
The deposit covers about 23,000 reagents; shown is a part drawn at random. 455 of all reagents (2%) count as active. 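Active includes both protection and sensitisation; some change values fall well beyond the stated -50 to +50 range.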 Entries without a mark were called inactive. Not given: the amount of reagent.

no.	target	two-siRNA summed score (-2 to +2)	mean protection from cisplatin (shift in death) (%)	protection from cisplatin (shift in death), siRNA C (%)	protection from cisplatin (shift in death), siRNA D (%)
1	RBM41	0	-1.5	0.8	-3.7
2	LOC200159	-1	4.6	19.7	-10.5
3	GDPD2	0	0.4	-5	5.7
4	SNRNP25	0	12.3	21.1	3.5
5	PMP22	0	-6.5	-7.8	-5.2
6	RND3	0	2.6	5.6	-0.4
7	FOXM1	0	5.1	14.2	-3.9
8	LOC441316	1	14.3	19.2	9.4
9	MNAT1	-1	-13.8	-8.7	-19
10	DNAJC3	0	5.2	5.9	4.5
11	SAMD3	-1	-9.6	-15.7	-3.4
12	SLC25A41	0	12.7	19.1	6.3
13	LOC389019	1	14.6	13.9	15.4
14	MMP13	-1	-8.7	2.9	-20.2
15	WDR93	0	3.5	14.4	-7.4
16	ANGPTL6	0	0	0.5	-0.6
17	SHCBP1	0	4.1	4.8	3.5
18	DCAF12L1	1	16.3	20.2	12.3
19	IDI1	0	-3.2	-10.5	4.2
20	SMARCC2	1	7.5	2.5	12.4
21	LOC441821	0	5.5	-4.6	15.6
22	MID1IP1	0	0	12.2	-12.2
23	LOC440927	0	26.8	27.7	25.9
24	ZNF256	0	8.6	13.1	4
25	KCTD20	-1	-15.3	-6.9	-23.7
26	KIFAP3	0	0.7	-12.3	13.6
27	YPEL2	0	4.3	2.9	5.6
28	RND2	0	5.2	7.5	2.9
29	LOC440820	1	14.7	9.5	20
30	FAAH	0	12.4	14.2	10.7
31	NRN1L	0	8.2	10.6	5.9
32	ZNF502	0	6.5	0.1	12.9
33	SLC27A2	0	9.3	16.7	1.9
34	ABCC11	0	10.7	7.7	13.7
35	MIGA2	0	-3	2	-7.9
36	PDPN	-1	-2.3	6.7	-11.2
37	TBC1D23	-1	-21.3	-11.1	-31.6
38	ARHGAP27	-1	4.8	-10.9	20.5
39	LOC440999	-1	-2.1	-10.7	6.5
40	XPNPEP2	0	-8.3	-24.3	7.7
41	BAIAP3	-1	-28.6	-26.1	-31
42	ARHGAP11A	0	6.5	4.5	8.4
43	ASL	0	0.6	1.9	-0.6
44	CDC14B	0	-3.5	-4.1	-2.9
45	SULT1A2	0	6	8.5	3.6
46	OR9A2	0	4.4	0.2	8.5
47	LOC441162	0	1.6	4.9	-1.7
48	SLC24A2	0	-3.6	1.2	-8.4
49	CEACAM4	2 (active)	28.2	27.7	28.6
50	TMEM247	1	11.4	19.7	3.2
51	ATP2A2	1	3.8	5.4	2.1
52	AQP1	-1	-11.5	6.3	-29.3
53	LOC390704	0	3.4	7.3	-0.5
54	CELF2	0	6.7	6	7.4
55	LOC391859	1	19.7	16.6	22.8
56	MRPS17	-1	-15.4	-15.8	-15.1
57	LOC146167	0	7.2	11.6	2.9

7 entries from above, arranged by “mean protection from cisplatin (shift in death) (%)”, low to high.
target	two-siRNA summed score (-2 to +2)	mean protection from cisplatin (shift in death) (%)	protection from cisplatin (shift in death), siRNA C (%)	protection from cisplatin (shift in death), siRNA D (%)
TBC1D23	-1	-21.3	-11.1	-31.6
MIGA2	0	-3	2	-7.9
PDPN	-1	-2.3	6.7	-11.2
LOC440999	-1	-2.1	-10.7	6.5
ARHGAP27	-1	4.8	-10.9	20.5
SLC27A2	0	9.3	16.7	1.9
ABCC11	0	10.7	7.7	13.7
